# According to the supplement of paper PMC10338343:
# ± gives the standard deviation. The list shows a part of the results. Many entries were measured with a wide error.
# System: EfPiwi piRISC loaded with L1MC piRNA (26 nt)
# Assay: pre-steady-state target cleavage rate (min^-1); guide: L1MC piRNA 5'p-UAACUAAAUACUAUGCAAGCUGUAGG; MIWI and MILI are mouse PIWI proteins and EfPiwi is from a freshwater sponge; tags in brackets are library labels; higher = faster piRNA-guided slicing of the target
# Conditions: auxiliary factor: 500 nM Ephydatia muelleri Gtsf1
# Method in brief: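 Cleave-'n-Seq used a transcribed, DNA-blocked target RNA library at 0.1 nM and active affinity-purified piRISC with one synthetic guide at 1 nM, with or without 500 nM GTSF1 partner protein, in HEPES–potassium acetate buffer at 33 °C for 0–8 or 0–960 min. Uncleaved targets were sequenced and normalised to depth and to weakly complementary targets, and three trials were pooled with k3 capped at 0.0001 min^-1. The pre-steady-state cleavage rate was estimated by a burst-and-steady-state fit.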
row,Sequence,pre-steady-state target cleavage rate
1,UCCUGGAUGUCGUUGGAUAGUAUUUAGUAA,0.000148 ± 0.05
2,UCCUGGAUCAGUUGCAUAGUAUUUAGUUA,0.0258 ± 0.0051
3,UCCUGGAUGUCGUUGCAUAGUGUUUAGUUA,0.00221 ± 0.0044
4,UCCUGGUUGUGCUUGCAUAGUAUUUACAAA,0.002 ± 0.0029
5,UCCUGCUACAGCUUGCAUAGUAUAUAGUUA,0.00448 ± 0.0019
6,UCCUGGAUGUCGAACGUAUCAAUAUAGUUA,< 0.0001
7,UCCUGGAUGUCGAUCCUUAGUAUUUAGUUA,0.000608 ± 0.0073
8,UCCUGGUUCAGCUUGCAUAGUAUUUAGUUA,0.0765 ± 0.018
9,UCCUGGUACAGGUUGCAUAGUUUUUAGUUA,0.00104 ± 0.016
10,UCCUGGAUGAGCUUGCUUAGUUUUUAGUUA,0.00056 ± 0.013
11,UCCUGGAUGUCCUUGCAUAGUAUUUAUUUA,0.00464 ± 0.0036
12,UCCUGGAUCACCUUGGAUAGUAUUUAGUUA,0.00371 ± 0.0037
13,UCCUGCUACAGCUUGCAUAGUAUUUAGUCA,0.00386 ± 0.0017
14,UCCUGGAACAGCAAGCAUAGUAUUUAGUAA,0.00167 ± 0.0035
15,UCCUGGUACAGCUUGCAAAGUAUUUAGUUA,0.0101 ± 0.0035
16,UCCUCCUACUGCUUGCAUAGUAUUUUGUUA,0.0111 ± 0.0044
17,UCCUGGAAAAGCUUGCAUAGUAUUUAGUUA,0.0119 ± 0.0039
18,UCCUGGAUCAGCUUGCAUAGUAAUUAGUAA,0.00487 ± 0.0027

# Some of the entries so far, as tab-separated lines.
row	Sequence	pre-steady-state target cleavage rate
5	UCCUGCUACAGCUUGCAUAGUAUAUAGUUA	0.00448 ± 0.0019
12	UCCUGGAUCACCUUGGAUAGUAUUUAGUUA	0.00371 ± 0.0037
17	UCCUGGAAAAGCUUGCAUAGUAUUUAGUUA	0.0119 ± 0.0039

# Following part:

row,Sequence,pre-steady-state target cleavage rate
1,UCCUGGAUGUCGAACGUAAGUAUUUGGUUA,< 0.0001
2,UCCUGGAUGUCCUGUGCAUAGUAUUUAGUUA,0.00223 ± 0.0032
3,UCCUGCUACAGCUUGCAUAGUUUUUAGUAA,0.00424 ± 0.0013
4,UCCUCCUUCAGCUUGCAUAGUAUUUAGUAA,0.012 ± 0.005
5,UCCUCCUAGAGCUUGCAUAGUAUUUAGUAA,0.00608 ± 0.0021
6,UCCUGGAUCAGCUUGGUUAGUAUUUAGUAA,0.00158 ± 0.004
7,UCCUGGAUCAGCUUGGAUAGUUUUUAGUUA,0.000919 ± 0.0045
8,UCCUGGAUCAGCUUGCAUAGUAUUUAGAUA,0.00499 ± 0.0022
9,UCCUGGAUCAGCUUGCAAUCUAUUUAGUUA,0.000885 ± 0.0057
10,UCCUGGUUCAGCUUGCUUAGUAUUUAGUUA,0.0145 ± 0.0054
11,UCCUCCUACAGCAUGCAUACUAUUUAGUUA,0.00724 ± 0.0028
12,UCCUGGAUGUCCUUGCAUUGUAUUUAGUUA,0.00202 ± 0.0029
13,UCCUGGAUGUGCAUGCAUAGUAUUUAGUUA,0.00855 ± 0.0029
14,UCCUGCUACAGCAUGCUUAGUAUUUAGUUA,0.0122 ± 0.0038
15,UCCUGCUUCACCUUGCAUAGUAUUUAGUUA,0.0076 ± 0.0034
16,UCCUGGAUGUCCUUGAAUAGUAUUUAGUUA,0.000896 ± 0.0038
17,UCCUGGUUCAGCUUGCAUAGUAAUUAGUUA,0.0107 ± 0.0037

# Same assay, conditions: auxiliary factor: none (no Gtsf1)
row,Sequence,pre-steady-state target cleavage rate
1,UCCUCCUACAGCUUGCAUAGUUUUUACUUA,0.000641 ± 0.0091
2,UCCUGGAUGUCGAUCCAUAGUAAUUAGUUA,< 0.0001
3,UCCUGGAUGUCGAACGUAUGAUAUUAGUUA,0.000264 ± 0.022
4,UCCUGGAUGUCGAACGUUUGUAAUUAGUUA,< 0.0001
5,UCCUGGAUGUCGAUGGAUAGAAUUUAGUUA,< 0.0001
